{"sequences": {"note": "Sequences of proteins named here, by UniProt entry; tags and fusion partners are left off. A change or cut given only in a name is not applied to a line headed by its entry.", "UniProt P06400": "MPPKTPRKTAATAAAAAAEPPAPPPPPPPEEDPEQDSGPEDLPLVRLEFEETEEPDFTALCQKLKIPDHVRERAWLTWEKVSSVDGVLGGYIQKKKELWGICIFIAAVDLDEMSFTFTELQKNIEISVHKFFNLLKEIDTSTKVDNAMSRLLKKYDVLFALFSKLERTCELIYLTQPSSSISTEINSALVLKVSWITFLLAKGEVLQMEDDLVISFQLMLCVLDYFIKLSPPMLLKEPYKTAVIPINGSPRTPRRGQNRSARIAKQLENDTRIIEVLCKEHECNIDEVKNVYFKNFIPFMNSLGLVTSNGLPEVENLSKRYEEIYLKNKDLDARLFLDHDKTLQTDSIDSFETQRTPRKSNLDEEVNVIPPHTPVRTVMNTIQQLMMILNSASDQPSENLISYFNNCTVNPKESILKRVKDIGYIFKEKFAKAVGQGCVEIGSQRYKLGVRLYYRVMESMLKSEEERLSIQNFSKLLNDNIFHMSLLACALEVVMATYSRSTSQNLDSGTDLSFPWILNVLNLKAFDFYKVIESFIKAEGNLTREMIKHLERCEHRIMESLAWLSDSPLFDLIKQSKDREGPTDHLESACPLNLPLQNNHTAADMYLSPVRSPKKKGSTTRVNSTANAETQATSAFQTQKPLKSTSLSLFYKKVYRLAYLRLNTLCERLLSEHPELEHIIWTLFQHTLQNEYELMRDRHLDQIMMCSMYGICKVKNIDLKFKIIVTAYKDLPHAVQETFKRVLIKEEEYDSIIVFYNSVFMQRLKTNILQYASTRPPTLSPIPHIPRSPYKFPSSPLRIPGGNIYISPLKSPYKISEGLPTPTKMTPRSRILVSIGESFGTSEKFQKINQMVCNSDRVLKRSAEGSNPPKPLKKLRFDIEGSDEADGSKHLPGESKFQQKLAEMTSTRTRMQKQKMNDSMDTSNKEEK", "UniProt Q01094": "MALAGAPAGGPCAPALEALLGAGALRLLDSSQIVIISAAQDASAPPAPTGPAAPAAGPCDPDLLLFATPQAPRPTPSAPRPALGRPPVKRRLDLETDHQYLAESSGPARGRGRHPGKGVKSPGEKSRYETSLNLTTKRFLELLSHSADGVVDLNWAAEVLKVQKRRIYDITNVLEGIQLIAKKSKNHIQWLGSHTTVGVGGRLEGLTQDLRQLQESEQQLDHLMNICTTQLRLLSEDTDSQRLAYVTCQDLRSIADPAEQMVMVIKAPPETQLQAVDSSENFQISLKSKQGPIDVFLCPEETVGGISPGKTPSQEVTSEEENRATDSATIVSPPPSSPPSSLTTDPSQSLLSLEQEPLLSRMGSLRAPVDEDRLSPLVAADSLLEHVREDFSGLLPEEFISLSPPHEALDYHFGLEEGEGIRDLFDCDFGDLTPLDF"}, "source": "patent US9656953B2", "about": "“Inhibition of cell proliferation” (University of South Florida, priority 2005, dated 2017)", "molecular_target": "T1, Rb-E2F1 (Homo sapiens, UniProt P06400+Q01094)", "T1 construct": "made in house", "experiment": "GST ELISA, Rb-E2F1 binding", "description": "In vitro library screening assays. […] Absorbance was read at 490 nanometers (nm).", "note": "Some of these results come from one statement about several compounds together.", "data": [{"smiles": "N=C(N)SCc1ccc(Cl)c2ccccc12", "note": "[(2), (4-chloronaphthalen-1-yl)methyl carbamimidothioate]", "values": [{"measurement": "selectivity for Rb:Raf-1 over Rb-E2F1", "value": "at least 200 fold"}]}]}
